# Assay results taken from PMC12328827.
# Amino acid sequences for entries named in this document (tags omitted). A change or cut given only in a name is not applied to a line headed by its entry. Chains listed by the source or under a name are the forms on record and can include a tag or linker.
# KIT Δ560–578 mutant (constitutively active, imatinib-sensitive) of GIST-T1 cells (human (endogenous in GIST-T1)) (P10721, form named): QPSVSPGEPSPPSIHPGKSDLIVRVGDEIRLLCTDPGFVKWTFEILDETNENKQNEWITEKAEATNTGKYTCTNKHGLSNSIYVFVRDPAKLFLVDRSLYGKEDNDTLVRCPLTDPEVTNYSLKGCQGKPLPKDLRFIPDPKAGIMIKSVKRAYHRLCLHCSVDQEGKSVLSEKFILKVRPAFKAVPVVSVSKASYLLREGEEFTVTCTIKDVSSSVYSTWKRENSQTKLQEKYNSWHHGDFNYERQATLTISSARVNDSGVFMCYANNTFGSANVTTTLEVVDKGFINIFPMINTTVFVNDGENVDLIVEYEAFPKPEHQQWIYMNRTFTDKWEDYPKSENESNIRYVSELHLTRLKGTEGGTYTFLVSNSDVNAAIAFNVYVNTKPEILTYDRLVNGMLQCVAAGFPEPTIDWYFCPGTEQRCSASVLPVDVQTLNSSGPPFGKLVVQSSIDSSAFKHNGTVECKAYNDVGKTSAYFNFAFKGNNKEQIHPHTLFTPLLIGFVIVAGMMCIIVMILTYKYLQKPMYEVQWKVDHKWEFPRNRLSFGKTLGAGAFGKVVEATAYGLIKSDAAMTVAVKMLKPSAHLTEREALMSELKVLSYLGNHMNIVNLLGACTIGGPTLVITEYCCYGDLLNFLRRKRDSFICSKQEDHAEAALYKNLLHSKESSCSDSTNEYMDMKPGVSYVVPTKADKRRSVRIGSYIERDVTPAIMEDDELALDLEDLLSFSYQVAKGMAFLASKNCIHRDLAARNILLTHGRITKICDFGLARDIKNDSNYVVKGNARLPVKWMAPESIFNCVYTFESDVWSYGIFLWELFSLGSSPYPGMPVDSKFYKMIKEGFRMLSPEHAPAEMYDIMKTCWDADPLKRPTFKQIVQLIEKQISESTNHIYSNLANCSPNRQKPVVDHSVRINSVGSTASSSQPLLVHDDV
# UniProt O14939: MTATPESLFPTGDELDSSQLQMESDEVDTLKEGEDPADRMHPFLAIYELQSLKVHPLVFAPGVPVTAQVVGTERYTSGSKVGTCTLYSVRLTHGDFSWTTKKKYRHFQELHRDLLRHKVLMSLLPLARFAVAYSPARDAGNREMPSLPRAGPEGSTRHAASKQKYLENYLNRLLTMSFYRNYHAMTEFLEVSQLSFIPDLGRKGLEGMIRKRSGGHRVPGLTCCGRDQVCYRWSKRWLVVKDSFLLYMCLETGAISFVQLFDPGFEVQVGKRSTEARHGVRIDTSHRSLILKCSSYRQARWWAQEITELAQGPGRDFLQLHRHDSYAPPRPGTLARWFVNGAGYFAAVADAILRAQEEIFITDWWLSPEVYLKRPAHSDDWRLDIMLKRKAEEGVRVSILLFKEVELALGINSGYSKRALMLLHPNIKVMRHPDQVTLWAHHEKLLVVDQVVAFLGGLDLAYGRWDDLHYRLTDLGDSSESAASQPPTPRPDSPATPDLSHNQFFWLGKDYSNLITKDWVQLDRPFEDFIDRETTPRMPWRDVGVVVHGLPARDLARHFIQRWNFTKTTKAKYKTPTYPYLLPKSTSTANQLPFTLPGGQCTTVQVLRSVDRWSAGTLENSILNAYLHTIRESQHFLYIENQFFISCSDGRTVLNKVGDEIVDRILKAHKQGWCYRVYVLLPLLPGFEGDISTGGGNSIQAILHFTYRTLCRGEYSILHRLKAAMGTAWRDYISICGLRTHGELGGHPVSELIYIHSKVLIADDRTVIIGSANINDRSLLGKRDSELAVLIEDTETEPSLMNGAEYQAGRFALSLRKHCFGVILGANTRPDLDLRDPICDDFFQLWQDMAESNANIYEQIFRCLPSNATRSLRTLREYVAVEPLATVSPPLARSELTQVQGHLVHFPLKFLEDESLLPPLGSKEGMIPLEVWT
# No constants are given. Whether binding was seen depends on the method and setting. Binding seen in cells or lysates may run through a third protein. Some results given as binding are weak or reduced against the parent protein; the word gives no strength.
# T1: Golgi-localised, γ-ear-containing, ARF-binding family of protein 1 (human (endogenous in GIST-T1)), Q9UJY5
# T1 chain: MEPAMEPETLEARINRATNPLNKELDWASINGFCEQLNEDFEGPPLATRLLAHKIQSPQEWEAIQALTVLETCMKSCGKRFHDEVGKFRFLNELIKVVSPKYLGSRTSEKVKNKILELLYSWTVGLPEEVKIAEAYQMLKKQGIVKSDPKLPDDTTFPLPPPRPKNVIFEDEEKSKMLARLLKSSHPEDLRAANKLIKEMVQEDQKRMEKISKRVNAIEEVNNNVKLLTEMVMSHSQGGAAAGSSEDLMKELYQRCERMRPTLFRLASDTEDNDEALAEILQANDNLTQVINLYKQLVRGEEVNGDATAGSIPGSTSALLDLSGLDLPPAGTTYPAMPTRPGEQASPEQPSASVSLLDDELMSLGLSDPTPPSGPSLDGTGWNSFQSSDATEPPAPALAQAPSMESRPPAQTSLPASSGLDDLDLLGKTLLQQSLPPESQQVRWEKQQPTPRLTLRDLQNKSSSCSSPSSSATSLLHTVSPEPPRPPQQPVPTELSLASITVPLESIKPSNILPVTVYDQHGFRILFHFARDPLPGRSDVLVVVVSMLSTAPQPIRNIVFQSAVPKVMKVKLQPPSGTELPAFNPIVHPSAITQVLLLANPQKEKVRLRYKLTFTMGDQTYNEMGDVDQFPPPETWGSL
# Assays:
# [1] = molecular target: KIT Δ560–578 mutant (constitutively active, imatinib-sensitive) of GIST-T1 cells (human (endogenous in GIST-T1)) (UniProt P10721); test: co-IP; KIT immunoprecipitated from GIST-T1 lysates (NP-40 lysis buffer, 4 °C, 5 h, Dynabeads Protein G pre-coated with anti-KIT; anti-ALK as control antibody), blotted for PLD2; cells untreated or treated with 200 nM imatinib for 8 h
# [2] = molecular target: T1, Golgi-localised, γ-ear-containing, …; test: co-IP; GGA1 immunoprecipitated from GIST-T1 lysates (NP-40 lysis buffer, 4 °C, 5 h, Dynabeads Protein G pre-coated with anti-GGA1; control antibody IP), blotted for γ-adaptin; cells untreated or treated with 20 µM PIK-93, 10 µM CRT0066101 or 20 µM CAY10594 for 8 h; details: remark: other sources report otherwise
molecule,measurement,setting,value
phospholipase D2 (from UniProt O14939 1-933) (enzyme),binding,[1],binds
"γ-adaptin subunit of the adaptor protein-1 complex (AP1), O43747 1-822 (protein) MPAPIRLRELIRTIRTARTQAEEREMIQKECAAIRSSFREEDNTYRCRNVAKLLYMHMLGYPAHFGQLECLKLIASQKFTDKRIGYLGAMLLLDERQDVHLLMTNCIKNDLNHSTQFVQGLALCTLGCMGSSEMCRDLAGEVEKLLKTSNSYLRKKAALCAVHVIRKVPELMEMFLPATKNLLNEKNHGVLHTSVVLLTEMCERSPDMLAHFRKLVPQLVRILKNLIMSGYSPEHDVSGISDPFLQVRILRLLRILGRNDDDSSEAMNDILAQVATNTETSKNVGNAILYETVLTIMDIKSESGLRVLAINILGRFLLNNDKNIRYVALTSLLKTVQTDHNAVQRHRSTIVDCLKDLDVSIKRRAMELSFALVNGNNIRGMMKELLYFLDSCEPEFKADCASGIFLAAEKYAPSKRWHIDTIMRVLTTAGSYVRDDAVPNLIQLITNSVEMHAYTVQRLYKAILGDYSQQPLVQVAAWCIGEYGDLLVSGQCEEEEPIQVTEDEVLDILESVLISNMSTSVTRGYALTAIMKLSTRFTCTVNRIKKVVSIYGSSIDVELQQRAVEYNALFKKYDHMRSALLERMPVMEKVTTNGPTEIVQTNGETEPAPLETKPPPSGPQPTSQANDLLDLLGGNDITPVIPTAPTSKPSSAGGELLDLLGDINLTGAPAAAPAPASVPQISQPPFLLDGLSSQPLFNDIAAGIPSITAYSKNGLKIEFTFERSNTNPSVTVITIQASNSTELDMTDFVFQAAVPKTFQLQLLSPSSSIVPAFNTGTITQVIKVLNPQKQQLRMRIKLTYNHKGSAMQDLAEVNNFPPQSWQ",binding,[2],binds
